Reference: US9499582B2 (Oneday—Biotech And Pharma Ltd., priority 2012, dated 2016)

Assay: Fmoc solid-phase peptide synthesis; Fmoc-X-Wang resin
Conditions: whole synthesis, scale of the general procedure 0.08 mmol

N-acetyl-Cys-Lys-Met-Cys-NH2 (CKMC; N-acetyl, C-terminal amide)
final purity (method not given): >98% pure
